{"source": "PubChem BioAssay AID1259424, University of Nebraska Medical Center | 2018", "aim": "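Find knockdowns that reproduce the expression shifts seen after KSR1 loss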 (primary screen)", "cells": "human HCT116 colon cancer cells", "reagent": "siRNA pool against human genes, 50 nM", "detection": "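Six signature mRNAs by branched-DNA multiplex assay, scaled to two housekeeping genes and non-targeting median, log2; matched to mean KSR1 knockdown profile by Pearson correlation and euclidean distance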", "direction": "mean correlation with KSR1 profile: higher = expression change more like KSR1 knockdown", "note": "Here is one part, drawn at random, of about 14,000 reagents tested. 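Higher correlation or smaller distance means closer resemblance to KSR1 loss; control wells, including KSR1 knockdowns, recur on many plates.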 Not all columns of the deposit are shown. Not stated in the record: the time to read-out."}
The opening 2 records, to show the layout:
{"gene":"SOST","PubChem SID":"SID364003337","mean correlation with KSR1 profile":-0.712}
{"gene":"EMP3","PubChem SID":"SID363992689","mean correlation with KSR1 profile":0.263}

The listing, from the first entry:
{"gene":"SOST","PubChem SID":"SID364003337","mean correlation with KSR1 profile":-0.712}
{"gene":"EMP3","PubChem SID":"SID363992689","mean correlation with KSR1 profile":0.263}
{"gene":"RPP25","PubChem SID":"SID364000532","mean correlation with KSR1 profile":0.189}
{"gene":"RPL39","PubChem SID":"SID363992283","mean correlation with KSR1 profile":-0.551}
{"gene":"ALOX12","PubChem SID":"SID363991996","mean correlation with KSR1 profile":-0.0764}
{"gene":"DNM1L","PubChem SID":"SID363996580","mean correlation with KSR1 profile":-0.168}
{"gene":"SLC12A7","PubChem SID":"SID363997388","mean correlation with KSR1 profile":-0.195}
{"gene":"L2HGDH","PubChem SID":"SID364003134","mean correlation with KSR1 profile":-0.465}
{"gene":"ACBD3","PubChem SID":"SID364002512","mean correlation with KSR1 profile":0.399}
{"gene":"MOXD1","PubChem SID":"SID363999552","mean correlation with KSR1 profile":-0.281}
{"gene":"ZNF268","PubChem SID":"SID364004751","mean correlation with KSR1 profile":-0.288}
{"gene":"RNF121","PubChem SID":"SID364000974","mean correlation with KSR1 profile":-0.891}
{"gene":"CHD1L","PubChem SID":"SID364005601","mean correlation with KSR1 profile":-0.42}
{"gene":"UGT2B10","PubChem SID":"SID363992372","mean correlation with KSR1 profile":-0.0421}
{"gene":"EYA2","PubChem SID":"SID363996165","mean correlation with KSR1 profile":-0.382}
{"gene":"HOXB7","PubChem SID":"SID363995479","mean correlation with KSR1 profile":-0.418}
{"gene":"IKBKG","PubChem SID":"SID363994714","mean correlation with KSR1 profile":-0.225}
{"gene":"FAM13B","PubChem SID":"SID364000227","mean correlation with KSR1 profile":-0.0278}
{"gene":"NEUROD2","PubChem SID":"SID363996989","mean correlation with KSR1 profile":0.601}
{"gene":"LZTS1","PubChem SID":"SID364001959","mean correlation with KSR1 profile":0.297}
{"gene":"TTC28","PubChem SID":"SID363999394","mean correlation with KSR1 profile":0.744}
{"gene":"MAMDC4","PubChem SID":"SID364005273","mean correlation with KSR1 profile":-0.351}
{"gene":"MRPS25","PubChem SID":"SID364002482","mean correlation with KSR1 profile":-0.408}
{"gene":"ACTRT1","PubChem SID":"SID364004544","mean correlation with KSR1 profile":-0.162}
{"gene":"SFTPC","PubChem SID":"SID363994167","mean correlation with KSR1 profile":-0.254}
{"gene":"POU4F3","PubChem SID":"SID363993860","mean correlation with KSR1 profile":-0.329}
{"gene":"TEX10","PubChem SID":"SID364000493","mean correlation with KSR1 profile":0.0148}
{"gene":"MOG","PubChem SID":"SID363993611","mean correlation with KSR1 profile":0.00144}
